One assay addresses T1, #16.
T1 sequence (peptide): LEETLAEFWARLLERLFK
Nature of the assay: ELISA on peptides of the GPC1 peptide library.

In the next assay the target is T2, #13.
T2 sequence (peptide): ELYTQNARAFRDLYSELR
Nature of the assay: ELISA on peptides of the GPC1 peptide library. Background: In an ELISA, binding on a coated surface is turned into a signal by an enzyme label.

These are yes or no findings as the source states them, for the method shown.

Among the data in patent publication US20230340146A1 (US Dept. of Health and Human Services, published 2023) are binding values, retold here.

B1: D4 camel single-domain antibody (VHH)
VHH: QVQLVESGGGLVQPGGSLRLSCVASGYSYSIGYMAWFRQAPGKERAWVASRYTGDGGAVFDDAVKGRFTTSQESAGNTFDLQMDSLKPEDTAMYYCAAKGPGFGRWEYWGRGTQVTVSS
notes: the methods describe D4 at 1 ug/ml detected with anti-FLAG; also called D4 antibody; D4 clone; not shown: FLAG and His tags (detected with anti-FLAG; 'His-tagged D4')
With B1, the binding entry in the assay with #16 and in the assay with #13 was “no binding (tested: not given)” in each case.
